The values that follow come from US10463716B2 (UNIVERSITY OF MARYLAND, BALTIMORE, priority 2014, dated 2019).

This series deals with C57/BL mice. Nature of the series: MI-induced heart failure by coronary artery ligation, echocardiography. Type of series: in vivo, mouse. To be noted: ELA infusion, Week 5. The protocol: C57/BL wild type mice at age of 14-16 months old were used. Mice were subjected to either MI by permanent ligation or sham treatment with a loose suture of the proximal left anterior descending (LAD) coronary artery under general anesthesia by 2% isoflurane inhalation, and mechanical ventilation via oral intubation. Left thoracotomy in the 3-4 intercostal space was performed and the pericardium was opened to expose the LV and the LAD. The artery was circled a 8-0 silk suture, and then either ligated permanently or remained loose (sham).
Twelve to 14 mice were used in each group.
Data were calculated with the accepted formulae, which have been validated in mice.
Coronary artery ligation (CAL) is a well-used procedure to create a mouse model of acute myocardial infarction (MI) and heart failure (HF). […] Echocardiography was conducted to access heart function before the procedure (baseline), and at 1 week and 5 weeks post-MI.

With `CSCC[C@H](NC(=O)[C@@H](NC(=O)[C@H](CC(C)C)NC(=O)[C@H](CC(N)=O)NC(=O)[C@@H](NC(=O)[C@@H]1CCCN1C(=O)[C@H](CCCNC(=N)N)NC(=O)[C@@H](N)CCC(N)=O)C(C)C)[C@@H](C)O)C(=O)N[C@@H](CCCNC(=N)N)C(=O)N[C@@H](CCCNC(=N)N)C(=O)N[C@@H](CCCCN)C(=O)N[C@@H](CC(C)C)C(=O)N[C@@H](CCCNC(=N)N)C(=O)N[C@@H](CCCCN)C(=O)N[C@@H](Cc1c[nH]cn1)C(=O)N[C@@H](CC(N)=O)C(=O)N[C@H]1CSSC[C@@H](C(=O)N[C@@H](CCSC)C(=O)N2CCC[C@H]2C(=O)N[C@@H](CC(C)C)C(=O)N[C@@H](Cc2c[nH]cn2)C(=O)N[C@@H](CO)C(=O)N[C@@H](CCCNC(=N)N)C(=O)N[C@H](C(=O)N2CCC[C@H]2C(=O)N[C@@H](Cc2ccccc2)C(=O)N2CCC[C@H]2C(=O)O)C(C)C)NC(=O)[C@H](CCCNC(=N)N)NC(=O)[C@H](CCCNC(=N)N)NC(=O)[C@H](CCC(N)=O)NC(=O)[C@H](CC(C)C)NC1=O` [ELA, Elabela], the BW was found to be 32.73 ± 1.38 g and the HR is given as 505.14 ± 12.73 bpm.
